Library screening results

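Whole-cell assay for inhibitors of Mycobacterium tuberculosis growth, labelled Cornell in the record; the read-out is not stated. The concentration is filed as 10 mM, unlikely as a test dose, so the dose is not known. Higher means stronger inhibition (inferred from two other growth screens of the library). Size under these conditions: about 53,000 compounds, about 900 of them at 50% or above in at least one test.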

Each number is a percent effect as filed. The record does not define 0% and 100%; most values in the screen are far below 50% and negative numbers occur (in some assays of this library far below -100). Compounds were drawn at random from those tested, without regard to their results.

| compound | Percent Effect |
|---|---|
| `O=C(O)CC(O)(CC(=O)O)C(=O)O.[H][C@@]12CC[C@@](O)(c3ccccn3)[C@]1([H])CN(Cc1ccccn1)C2` | 6.646 |
| `O=C(NC(Cc1ccsc1)c1nccs1)C1CCOCC1` (stereo not shown) | 6.132 |
| `O=C(CCCNC(=O)C1CC1)Nc1cnn(-c2ccccc2Cl)c1` | 22.37 |
| `CC(c1ccc(F)c(F)c1)N1CCN(Cc2nccn2C)CC1` (stereo not shown) | -35.38 |
| `CC(C)C(C)N(Cc1ccccn1)Cc1ccco1` (stereo not shown) | -6.078 |
| `Cc1cc(C)n(CC2CCCN2C(=O)Cc2cn3ccsc3n2)n1` (stereo not shown) | -28.61 |
| `[H][C@@]12COC[C@]1(COCc1ccncc1)CN(C(=O)C1=CCCC1)C2` | -20.46 |
| `O=C(Cn1cc(-c2ccccc2)ncc1=O)Nc1nccs1` | 13.94 |
| `COCCCN1C(=O)c2ccc(C(=O)NCCc3c[nH]cn3)cc2C1=O` | -0.7724 |
| `N#Cc1ccc(CN2CCNC(=O)C2c2cccs2)cc1` (stereo not shown) | 45.7 |
| `Cc1cccc2c1NC(c1cnc(C3CCC3)s1)NC2=O` (stereo not shown) | -13.97 |
| `COC(=O)c1ccc(N2CCN(Cc3csc(C)n3)CC2)nn1` | 0.3805 |
| `COc1cccc(-c2n[nH]cc2C(=O)NC(C)c2n[nH]c(C)n2)c1` (stereo not shown) | -5.651 |
| `CCc1cnc(N)nc1NCCCN1CCCCC1CO` (stereo not shown) | 30.5 |
| `O=C(O)C(F)(F)F.[H][C@]12CCN(C(=O)c3ccno3)[C@@]1([H])CC[C@@H](COCCN1CCCC1)O2` | 21.71 |
| `CC(C)CSCCCNC(=O)C1CCC1` | 11.02 |
| `CCN1CCN(C(=O)Cc2ccc(S(=O)(=O)C(F)F)cc2)CC1` | 7.491 |
| `Cc1cc(C(=O)N2CCN(c3nc4c(C(C)C)cccc4s3)CC2)no1` | 8.325 |
| `Cn1ccc(C(=O)N2CCC(Cc3cccc4cccnc34)C2)n1` (stereo not shown) | -3.18 |
| `O=C(c1scc2c1OCCO2)N1CCC(Cc2cccc(CO)c2)C1` (stereo not shown) | -1.21 |
| `CC1CCCN(Cc2ccc(C(N)=O)cc2)C1` (stereo not shown) | 3.013 |
| `[H][C@]12CC[C@]([H])(CN(c3nccc(C4CCCC4)n3)C1)N(CCOC)C2=O` | 28.07 |
| `CN(Cc1n[nH]c(=O)n1Cc1ccccc1F)S(C)(=O)=O` | 9.939 |
| `O=C(NCc1ccco1)c1ccc(N2CCOCC2)cc1` | -77.29 |
| `CC(C(=O)N1CCc2ccccc21)N1CCc2cncnc2C1` (stereo not shown) | -49.02 |
| `CCCN1CCCC(O)(c2nc(C)c(COc3ccccc3)s2)CC1` (stereo not shown) | -4.51 |
| `Cc1occc1C(=O)N1Cc2nccn2CC(CN(C)C)C1.O=C(O)C(F)(F)F` (stereo not shown) | 3.961 |

The last 2 entries again:

compound,Percent Effect
CCCN1CCCC(O)(c2nc(C)c(COc3ccccc3)s2)CC1 (stereo not shown),-4.51
Cc1occc1C(=O)N1Cc2nccn2CC(CN(C)C)C1.O=C(O)C(F)(F)F (stereo not shown),3.961

Data taken from ChEMBL document CHEMBL3988442, “University of Dundee, Small-Polar-MMV Screening Library” (2021).